This is an account of results in publication PMC11199983.

By UniProt entry, the sequences of proteins in these tests, tags left out. Residues count along the entry.
UniProt Q9NP99, residues 21-234: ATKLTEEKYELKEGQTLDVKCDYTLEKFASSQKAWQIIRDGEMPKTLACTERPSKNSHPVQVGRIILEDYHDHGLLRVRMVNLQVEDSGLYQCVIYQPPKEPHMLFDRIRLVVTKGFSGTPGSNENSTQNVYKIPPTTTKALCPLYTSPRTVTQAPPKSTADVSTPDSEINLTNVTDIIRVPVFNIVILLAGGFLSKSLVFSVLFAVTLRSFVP
UniProt Q9P0V8, residues 23-285: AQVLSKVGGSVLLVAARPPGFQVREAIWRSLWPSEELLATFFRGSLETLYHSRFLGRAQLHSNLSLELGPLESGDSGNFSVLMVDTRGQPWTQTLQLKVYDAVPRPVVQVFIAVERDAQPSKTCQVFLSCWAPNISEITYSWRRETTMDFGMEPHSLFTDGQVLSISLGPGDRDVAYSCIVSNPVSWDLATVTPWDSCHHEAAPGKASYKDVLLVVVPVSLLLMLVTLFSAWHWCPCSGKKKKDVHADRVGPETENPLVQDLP
UniProt O00206, residues 24-839: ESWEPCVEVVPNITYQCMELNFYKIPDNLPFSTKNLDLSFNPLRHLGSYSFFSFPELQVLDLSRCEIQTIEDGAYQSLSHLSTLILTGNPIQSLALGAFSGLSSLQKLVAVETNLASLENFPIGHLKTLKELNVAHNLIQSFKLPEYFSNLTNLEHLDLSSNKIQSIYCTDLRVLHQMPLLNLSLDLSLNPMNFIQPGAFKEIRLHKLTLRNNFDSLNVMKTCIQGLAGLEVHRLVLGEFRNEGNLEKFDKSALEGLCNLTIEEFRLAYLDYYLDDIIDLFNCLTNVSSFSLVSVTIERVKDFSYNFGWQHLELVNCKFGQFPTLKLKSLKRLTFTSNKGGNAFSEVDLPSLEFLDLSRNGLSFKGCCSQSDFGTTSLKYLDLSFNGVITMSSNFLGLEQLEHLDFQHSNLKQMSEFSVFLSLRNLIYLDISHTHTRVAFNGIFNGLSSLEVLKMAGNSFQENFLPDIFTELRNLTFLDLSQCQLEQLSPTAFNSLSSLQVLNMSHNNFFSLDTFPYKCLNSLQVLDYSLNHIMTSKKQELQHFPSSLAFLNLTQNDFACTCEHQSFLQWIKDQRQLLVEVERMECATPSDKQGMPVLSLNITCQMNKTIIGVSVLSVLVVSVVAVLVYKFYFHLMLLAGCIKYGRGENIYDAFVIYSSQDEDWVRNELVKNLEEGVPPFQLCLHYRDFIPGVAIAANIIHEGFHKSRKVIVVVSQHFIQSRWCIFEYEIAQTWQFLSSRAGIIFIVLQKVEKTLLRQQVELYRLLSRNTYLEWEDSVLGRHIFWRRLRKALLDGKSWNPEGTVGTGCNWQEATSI

No constants are given. Whether binding was seen depends on the method and setting. In cells and extracts the contact can be indirect. Some entries that bind do so weakly or less than the wild type.

The target in assay [1] is Triggering receptor expressed on myeloid cells 1 (TREM1) (human) (UniProt Q9NP99). The assay can be described thus: co-IP; THP-1 cell lysate, precleared with protein A+G agarose plus species-specific IgG (4 °C, 2 h); anti-FLAG or control IgG at 4 °C overnight, protein A+G agarose 3 h, washed three times with PBS, western blot; also done after SLAMF8 knockdown (Figure S2C: interaction of SLAMF8 with TREM1 attenuated).

Assay [2] deals with signaling lymphocyte activating molecule family member 8 (SLAMF8) (human (endogenous in THP-1; species of the FLAG-labeled cDNA not stated)) (UniProt Q9P0V8). The assay is described as above.

In the case of “TLR4 (from UniProt O00206 24-839) (receptor)”, the binding result in assay [1] is “binds”; in assay [2] it was “no binding”. In the case of “Triggering receptor expressed on myeloid cells 1 (TREM1) (from UniProt Q9NP99 21-234)”, the binding result in assay [2] was “binds”.
